PubChem BioAssay AID2685 (National Center for Advancing Translational Sciences (NCATS), 2010)
Some of the results follow. Shown are side measurements of this screen, not its main read-out; they come without a call. Most of these compounds were active or inconclusive in the main read-out, so they are no random draw. Words in brackets tell the shape of the fitted curve; partial curves, single points and poor fits give uncertain potencies.

Test: qHTS Assay for Lipid Storage Modulators in Drosophila S3 Cells;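 for cell number change: cells counted by Cell Tracker Red CMTPX staining in the red channel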
Conditions: BODIPY lipid droplet fluorescence, 18-24 h; for cell number change: measured here: cell count max response, cells fed with added oleic acid
Procedure, shortened: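 Drosophila S3 cells loaded with oleic acid (400 uM, as added) and compounds at several concentrations; lipid droplets imaged by 488-nm laser-scanning cytometry, 500–530 nm intensity and object ratio to cell channel. Percent activity normalized to 20 uM Triacsin C.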

[1] = measured here: cell number channel AC50, cells fed with added oleic acid
[2] = measured here: lipid fluorescence (Fed channel) AC50, cells fed with added oleic acid

SMILES | cell number change | AC50 [1] | AC50 [2]
CCc1c(C)nc(Nc2nc(C)c3ccc(OC)cc3n2)[nH]c1=O | 10.9% | 0.517 µM [rising, full curve] | 0.651 µM [rising, partial curve, poor fit]
CC(NC(=O)CCc1nnc(CCCc2ccccc2)o1)c1ccccc1 (configuration not stated) | -29.2% |  | 16.4 µM [falling, partial curve]
S=C(NCc1ccc(Cl)cc1)NC1CCN(Cc2ccccc2)CC1 | -45.1% | 35.5 µM [falling, single point] | 35.5 µM [falling, single point]
C[C@@H]1NC(=O)OC1c1ccco1 (some centres not stated) | -17.4% | 0.517 µM [falling, full curve, poor fit] | 
Cc1nc(CC(=O)N2CCN(S(=O)(=O)c3ccccc3C#N)CC2)cs1 | -0.361% | 2.91 µM [rising, single point] | 2.31 µM [rising, single point]
CC(=O)Nc1ccc(NC(=O)C(C)OC(=O)CNC(=O)c2cccs2)cc1 (configuration not stated) | -43.8% | 13 µM [falling, partial curve, poor fit] | 23.1 µM [falling, partial curve, poor fit]
Cc1ccc(C(=O)OCC(=O)N(CCc2ccccc2)Cc2ccccc2)cc1S(=O)(=O)N1CCOCC1 |  | 6.51 µM [rising, single point] | 
Cc1cccc(NC(=O)c2ccc(S(=O)(=O)N3CCCCC3)cc2)n1 | -18.1% | 0.00651 µM [falling, full curve, poor fit] | 
O=C(Cn1[nH]c(=O)c2ccccc2c1=O)Nc1cccc(-c2nnc3n2CCCCC3)c1 | 7.36% |  | 0.164 µM [falling, full curve, poor fit]
CC(C)NS(=O)(=O)c1cc(C(=O)O)ccc1Cl | 38.4% | 16.4 µM [rising, single point] | 20.6 µM [rising, single point]
CCOC(=O)Cc1c(C)c2c(O)cc(O)cc2oc1=O |  |  | 0.411 µM [falling, single point]
O=C(c1nnc(-c2ccc(Cl)cc2)o1)C1CCCC1 | 73.2% | 18.4 µM [rising, single point] | 
Cc1[nH]c(C)c(S(=O)(=O)N2CCN(c3cccc(Cl)c3)CC2)c1C(=O)N1CCCC1 | 4.45% |  | 
CC(C)(C)CN1CCC(n2nccc2NC(=O)c2ccccc2Cl)CC1 | -17.8% |  | 6.51 µM [falling, single point]
COc1ccc2nc(SCCN(C)C)[nH]c2c1 | -9.79% |  | 2.31 µM [falling, partial curve]
CC(=O)Nc1cccc([N+](=O)[O-])c1 | 5.89% | 6.51 µM [falling, single point] | 6.51 µM [falling, single point]
Nc1c(Cl)cc(-c2cn(CCC(=O)O)c(-c3ccc(Cl)nc3)n2)cc1Cl | 10.6% |  | 11.6 µM [rising, partial curve, poor fit]
O=C(Nc1nccs1)c1ccc(-c2ccccc2[N+](=O)[O-])o1 | -2.8% |  | 20.6 µM [falling, single point]
Cc1ccnc(NC(c2ccccn2)c2c(C)[nH]c3ccccc23)c1 (configuration not stated) | -41.9% | 20 µM [falling, partial curve, poor fit] | 22.4 µM [falling, single point]

Some entries already given, limited to AC50 [1] and AC50 [2]:
SMILES	AC50 [1]	AC50 [2]
CC(=O)Nc1ccc(NC(=O)C(C)OC(=O)CNC(=O)c2cccs2)cc1 (configuration not stated)	13 µM [falling, partial curve, poor fit]	23.1 µM [falling, partial curve, poor fit]
Cc1ccc(C(=O)OCC(=O)N(CCc2ccccc2)Cc2ccccc2)cc1S(=O)(=O)N1CCOCC1	6.51 µM [rising, single point]	
Cc1cccc(NC(=O)c2ccc(S(=O)(=O)N3CCCCC3)cc2)n1	0.00651 µM [falling, full curve, poor fit]	
O=C(Cn1[nH]c(=O)c2ccccc2c1=O)Nc1cccc(-c2nnc3n2CCCCC3)c1		0.164 µM [falling, full curve, poor fit]

The results go on.

SMILES | cell number change | AC50 [1] | AC50 [2]
CCSc1nnc(NC(=O)CN2C(=O)NC3(CCCC3)C2=O)s1 | -3.95% |  | 
CSc1nc2nc3c(c(=O)n2[nH]1)CCC3 | 13.9% |  | 
O=C(Nc1ccc(N2CCN(C(=O)c3ccco3)CC2)c(Cl)c1)c1cccs1 |  | 0.82 µM [rising, partial curve] | 1.46 µM [rising, partial curve]
CCCc1cc(=O)n2[nH]c(NCc3ccc(Cl)cc3Cl)nc2n1 | -2.02% |  | 0.13 µM [falling, full curve, poor fit]
CCOc1ccccc1NC(=O)NCc1ccccc1 | -22.3% | 0.731 µM [falling, single point] | 23.1 µM [falling, partial curve, poor fit]
CCOC(=O)c1c(C)[nH]c(N=Nc2cccc(C)c2)c1C | -92.3% | 5.8 µM [falling, full curve] | 
COC(=O)c1ccc2c(c1)sc(=NC(=O)CCS(=O)(=O)c1ccccc1)n2C |  |  | 4.11 µM [rising, partial curve, poor fit]
O=C(COC(=O)CCOc1ccccc1)Nc1ccc(Cl)cn1 | -18.5% | 0.146 µM [falling, full curve, poor fit] | 1.64 µM [falling, partial curve]
CCn1c(C)c(C(C)=O)c(N2CCN(c3ccccn3)CC2)nc1=S | 5.19% |  | 
CCOc1ccc(N(C(=O)c2cc3ccccc3oc2=O)C2C=CS(=O)(=O)C2)cc1 (configuration not stated) | 14.8% |  | 6.51 µM [falling, single point]
CCOc1ccccc1N(C)S(=O)(=O)c1ccc2[nH]cc(C(=O)N(CCOC)CCOC)c(=O)c2c1 | -16.3% | 5.17 µM [rising, single point] | 
Cc1cccc(-n2cccc2)c1C#N | 115% | 0.82 µM [rising, single point] | 
Cc1n[nH]c(C)c1Sc1ccccc1N=Cc1cc([N+](=O)[O-])ccc1O | 42.7% | 5.8 µM [rising, full curve, poor fit] | 6.51 µM [rising, single point]
CCOC(=O)c1cnc2nc(NCc3ccc(OCc4ccccc4)cc3)[nH]n2c1=O | -69% | 29.1 µM [falling, single point] | 29.1 µM [falling, single point]
CN(CC(=O)Nc1cccc(F)c1)C(=O)c1ccc(N2CCOCC2)c([N+](=O)[O-])c1 | -10.2% |  | 
O=C(/C(Cl)=C/Nc1ccc(Br)cn1)C(F)(F)F | -40.2% | 29.1 µM [falling, single point] | 
CCc1cccc(OCCOC(=O)CNS(=O)(=O)c2ccc(NC(C)=O)cc2)c1 | 5.5% |  | 
CCOC(=O)c1cnc(-n2nc(C)cc2C)nc1NCc1ccc2c(c1)OCO2 | -50.9% | 29.1 µM [falling, single point] | 0.461 µM [rising, partial curve, poor fit]
Cc1sc(-n2c(C)cc(C=O)c2C)c(C(=O)O)c1C | 35.7% | 23.1 µM [rising, partial curve, poor fit] | 3.66 µM [falling, full curve]

SMILES | cell number change | AC50 [1] | AC50 [2]
Cn1nc(C(=O)OCC(=O)Nc2ccc(Cl)cc2Cl)c2ccccc2c1=O | -11.9% |  | 
Cc1cc(S(=O)(=O)Nc2ccc(C(=O)NCC3(N4CCCCC4)CCCCC3)cc2)ccc1F | -32.3% | 3.66 µM [falling, full curve] | 4.11 µM [falling, full curve]
CCCCCn1c(CN2CCN(c3cccc(Cl)c3)CC2)nc2c1c(=O)n(C)c(=O)n2C | -26.7% |  | 0.731 µM [rising, full curve]
CCCOc1ccc(C(=O)CCNC(Cc2c[nH]c3ccccc23)C(=O)O)cc1 (configuration not stated) | -14.8% |  | 11.6 µM [falling, single point]
Cc1cc(NC(=O)CSc2nc3c(c(-c4cccnc4)c2C#N)CCC3)no1 | 3.83% |  | 0.82 µM [rising, partial curve]
CSC(=S)N/N=C/c1ccc(N(C)C)cc1 | 15.4% |  | 
CC(C)(C)c1ccc(S(=O)(=O)Nc2ccc(Cc3ccncc3)cc2)cc1 | -16.7% | 3.66 µM [falling, single point] | 
CCn1c(=N)n(CC(=O)c2cccc([N+](=O)[O-])c2)c2ccccc21 | -17.7% |  | 0.00461 µM [falling, full curve, poor fit]
COC(=O)[C@@]1(Cc2ccc(F)cc2)[C@H]2c3cc(C(=O)N4CCCC4)n(CCCNc4ncc(C(F)(F)F)cc4Cl)c3C[C@H]2CN1C(=O)c1ccccc1 | -6.89% |  | 
COc1ccc(-c2nc3ccccc3c(=O)n2NC(=O)Cc2ccccc2)cc1 | -11.1% |  | 29.1 µM [falling, single point]
O=C(c1cccs1)N(CCO)Cc1cc2cc3c(cc2[nH]c1=O)OCCO3 | 4.42% | 0.082 µM [falling, full curve, poor fit] | 
Cn1c(O)c(N=Nc2ccc(F)cc2)c2ccccc21 | 28.7% | 1.3 µM [rising, full curve] | 1.46 µM [rising, partial curve]
O=c1nc2n(c3ccc([N+](=O)[O-])cc13)CCCCC2 | -29.4% |  | 
O=S(=O)(ON(c1ccccc1)S(=O)(=O)c1ccccc1)c1ccccc1 | 6.38% |  | 0.651 µM [falling, single point]
Cc1ccc(NC(=O)Cn2cccc2)c(Br)c1 | -33.6% |  | 
Cc1ccc(CNC(=O)Cn2c(=O)n(CC(=O)N3CCCCC3)c(=O)c3sccc32)cc1 | -70.3% | 14.6 µM [falling, partial curve] | 5.17 µM [falling, single point]
O=c1c2c3nc4ccccc4nc3n(Cc3ccccc3)c2ncn1Cc1ccco1 | -41.6% | 10.3 µM [falling, partial curve] | 
CCN(CC(=O)Nc1cc(Cl)ccc1C)C(=O)c1oc2ccc(OC)cc2c1C | 118% | 4.11 µM [rising, full curve] | 
O=C(OCc1cccnc1)C1=Cc2ccccc2OC1 | 33.5% | 13 µM [rising, partial curve, poor fit] | 29.1 µM [rising, single point]
